The text below walks through data of patent EP0155486A1, “1,3,5-Trisubstituted 1,2,4-triazole derivatives, process for their preparation and medicinal preparations containing them” (priority 1984, dated 1985).

In series [1] the test system is männlichen Ratten der Art Long Evans. The class given is in vivo. Conditions: ratio of peroral LD50 to peroral ED50, rats. On the procedure:
Die Untersuchung der therapeutischen Wirkung der erfindungsgemäßen 1,2,4-Triazolderivate wurde mittels des modifizierten Newbould-Prüfversuches (Brit. J. Pharmacol., 21 [1963], Seite 127) durchgeführt. Dazu wurde in die rechen Hinterfüße von männlichen Ratten der Art Long Evans mit Gewichten von 180 bis 250 g intraplantar […] abgetötetes Mycobacterium tuberculosis in einem Volumen von 0,1 ml injiziert. Nachfolgend wurden die Ratten pro betreffenden Tag mit einer Dosis der zu untersuchenden Verbindung insgesamt 16-mal während 3 Wochen behandelt. Die Änderung des Volumens der Fußschwellung wurde 21 Tage lang täglich mit einem Quecksilber-Plethysmometer vom Lence-Typ bestimmt. Vom 10-ten Tag an wurde das Volumen des linken Hinterfußes bestimmt. Die prozentuale Hemmung wurde im Verhältnis zu diesem Volumen aus der eintretenden Änderung in der Schwellung des rechten Hinterfußes berechnet.

A further series can be described thus: in vivo. To be noted: rat, po.

In the case of `COc1ccc2cc([C@H](C)C(=O)O)ccc2c1` [Vergleichs-substanz B, (+)-2-[6'--(Methoxy)-naphth-2'-yl]-propionsäure, reference compound], the “Therapeu-tischer Index LD50-Wert / ED50-Wert” value in series [1] is on record as 43,4. The compound also registered an LD50 in the series “in vivo” of 543 mg/kg.
